Measurements from patent publication US20150005347A1, “NITROGEN-CONTAINING HETEROCYCLIC DERIVATIVE HAVING 2-IMINO GROUP AND PEST CONTROL AGENT INCLUDING THE SAME” (MEIJI SEIKA PHARMA CO., LTD., priority 2012, published 2015).
The name of at least one read-out is uncertain.

Tested on: Nilaparvata lugens exhibiting drug resistance to imidacloprid
Format: in vivo
Conditions: soil irrigation, Rate 0.05 mg/pot
Experimental: Test Example 18 Pest Control Test of Drug-Resistant Nilaparvata lugens
A rice seedling in pot culture was subjected to soil irrigation treatment with a drug solution of the compound of the present invention at a predetermined concentration, which had been prepared so as to be a 10% acetone water. […] Thereafter, the larvae were left to stand in a thermostatic chamber (16 hours of light period-8 hours of dark period) at 25° C. […] The test was performed in duplicate.
Mortality of larvae(%)={number of dead larvae/(number of survived larvae+number of dead larvae)}×100
Further, for the origin of test pests, bugs collected outdoors within the Kumamoto prefecture in 2007 as the drug resistant Nilaparvata lugens, and bugs collected within the Kagoshima prefecture and then successively reared indoors for a long time as the imidacloprid susceptible populations of Nilaparvata lugens were used.

Compound: O=C(C(C(=O)C(F)(F)F)=C1NCCN1Cc1ccc(Cl)nc1)C(F)(F)F [Comparative Example 5, 3-[1-((6-chloropyridine-3-yl)methyl)imidazolidine-2-ylidene]-1,1,1,5,5,5-hexafluoropentane-2,4-dione, reference compound]
- Insecticidal effects against Nilaparvata lugens (mortality of larvae %), Drug resistant populations three days after the treatment: 25%
